In the supplement of paper PMC10849652:
Some of the results follow.

By UniProt entry, the sequences of proteins in these tests, tags left out. Where a name states a change or a piece, a line headed by the entry shows the natural chain unless it says otherwise.
UniProt P51692: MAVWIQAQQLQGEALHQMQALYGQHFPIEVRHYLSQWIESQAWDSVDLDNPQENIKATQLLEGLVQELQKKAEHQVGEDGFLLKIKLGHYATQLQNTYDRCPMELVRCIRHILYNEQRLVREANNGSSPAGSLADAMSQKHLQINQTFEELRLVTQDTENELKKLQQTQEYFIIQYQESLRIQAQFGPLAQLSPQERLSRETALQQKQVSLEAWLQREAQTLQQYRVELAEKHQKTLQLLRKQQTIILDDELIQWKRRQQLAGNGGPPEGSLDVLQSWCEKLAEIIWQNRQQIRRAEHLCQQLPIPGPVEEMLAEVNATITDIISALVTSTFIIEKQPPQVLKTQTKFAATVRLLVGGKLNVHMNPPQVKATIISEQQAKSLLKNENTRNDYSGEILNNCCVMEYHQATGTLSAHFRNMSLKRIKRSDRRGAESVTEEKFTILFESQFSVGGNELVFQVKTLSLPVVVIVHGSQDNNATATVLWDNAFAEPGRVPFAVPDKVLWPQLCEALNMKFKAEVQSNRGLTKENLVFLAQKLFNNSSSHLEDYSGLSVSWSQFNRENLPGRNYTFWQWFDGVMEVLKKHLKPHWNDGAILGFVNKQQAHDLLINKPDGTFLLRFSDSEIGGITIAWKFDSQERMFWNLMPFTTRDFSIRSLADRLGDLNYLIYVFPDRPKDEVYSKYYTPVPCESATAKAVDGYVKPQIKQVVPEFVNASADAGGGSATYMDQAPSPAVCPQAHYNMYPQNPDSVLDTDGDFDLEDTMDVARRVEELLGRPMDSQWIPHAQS
UniProt Q5M775: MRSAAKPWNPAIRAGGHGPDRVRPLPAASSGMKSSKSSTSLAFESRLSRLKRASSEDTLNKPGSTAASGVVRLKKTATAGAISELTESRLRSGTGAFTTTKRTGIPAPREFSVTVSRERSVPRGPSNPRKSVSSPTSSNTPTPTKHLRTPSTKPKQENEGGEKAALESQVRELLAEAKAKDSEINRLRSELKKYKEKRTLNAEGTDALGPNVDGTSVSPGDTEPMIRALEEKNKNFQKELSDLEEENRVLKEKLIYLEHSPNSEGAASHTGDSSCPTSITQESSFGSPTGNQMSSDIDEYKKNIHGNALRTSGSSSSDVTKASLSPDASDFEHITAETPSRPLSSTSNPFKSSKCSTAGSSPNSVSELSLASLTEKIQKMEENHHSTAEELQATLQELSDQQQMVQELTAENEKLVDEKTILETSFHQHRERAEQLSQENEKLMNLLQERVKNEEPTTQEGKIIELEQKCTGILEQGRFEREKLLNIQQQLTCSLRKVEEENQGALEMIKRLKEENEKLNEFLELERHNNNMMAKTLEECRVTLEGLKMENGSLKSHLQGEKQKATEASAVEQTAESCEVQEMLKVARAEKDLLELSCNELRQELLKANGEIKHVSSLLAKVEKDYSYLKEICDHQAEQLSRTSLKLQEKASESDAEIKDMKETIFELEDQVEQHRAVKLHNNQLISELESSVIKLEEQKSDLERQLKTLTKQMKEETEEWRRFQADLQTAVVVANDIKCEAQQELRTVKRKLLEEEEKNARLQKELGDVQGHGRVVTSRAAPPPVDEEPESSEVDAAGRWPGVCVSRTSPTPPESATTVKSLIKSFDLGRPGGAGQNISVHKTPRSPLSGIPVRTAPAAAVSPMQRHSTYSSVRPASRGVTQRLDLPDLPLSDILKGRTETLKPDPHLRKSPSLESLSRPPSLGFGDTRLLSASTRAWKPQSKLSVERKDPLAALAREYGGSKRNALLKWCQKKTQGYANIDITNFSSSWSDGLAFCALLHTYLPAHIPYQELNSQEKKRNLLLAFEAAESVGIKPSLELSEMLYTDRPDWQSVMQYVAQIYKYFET
UniProt Q8N0X7: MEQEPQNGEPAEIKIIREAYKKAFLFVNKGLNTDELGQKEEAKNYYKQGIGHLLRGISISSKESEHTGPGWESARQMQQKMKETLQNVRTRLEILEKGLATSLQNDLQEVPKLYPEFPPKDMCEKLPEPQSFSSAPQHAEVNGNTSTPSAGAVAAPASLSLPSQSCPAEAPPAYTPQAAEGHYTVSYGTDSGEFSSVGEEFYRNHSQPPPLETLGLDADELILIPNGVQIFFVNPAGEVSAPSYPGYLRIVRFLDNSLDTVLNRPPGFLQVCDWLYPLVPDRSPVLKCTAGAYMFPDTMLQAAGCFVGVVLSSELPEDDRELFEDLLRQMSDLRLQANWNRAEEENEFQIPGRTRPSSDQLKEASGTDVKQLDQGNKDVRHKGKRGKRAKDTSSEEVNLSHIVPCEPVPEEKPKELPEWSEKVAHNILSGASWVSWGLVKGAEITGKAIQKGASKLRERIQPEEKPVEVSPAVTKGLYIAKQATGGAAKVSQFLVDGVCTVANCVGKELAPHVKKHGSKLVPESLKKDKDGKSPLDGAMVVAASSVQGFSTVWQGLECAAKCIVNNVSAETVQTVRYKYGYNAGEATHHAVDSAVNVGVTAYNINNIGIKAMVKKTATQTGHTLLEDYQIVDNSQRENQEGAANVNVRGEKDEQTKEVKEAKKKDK
UniProt P84103: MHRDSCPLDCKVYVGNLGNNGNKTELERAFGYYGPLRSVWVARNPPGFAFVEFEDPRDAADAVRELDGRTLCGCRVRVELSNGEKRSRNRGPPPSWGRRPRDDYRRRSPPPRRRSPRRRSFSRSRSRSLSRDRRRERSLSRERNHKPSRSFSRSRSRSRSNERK
UniProt Q9UNL2: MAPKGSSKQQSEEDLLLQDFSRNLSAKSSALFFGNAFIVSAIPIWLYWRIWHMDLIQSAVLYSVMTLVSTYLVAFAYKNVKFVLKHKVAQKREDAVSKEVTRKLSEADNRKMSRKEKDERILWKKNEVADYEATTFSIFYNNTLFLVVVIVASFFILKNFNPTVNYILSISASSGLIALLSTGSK
UniProt Q9BUA3: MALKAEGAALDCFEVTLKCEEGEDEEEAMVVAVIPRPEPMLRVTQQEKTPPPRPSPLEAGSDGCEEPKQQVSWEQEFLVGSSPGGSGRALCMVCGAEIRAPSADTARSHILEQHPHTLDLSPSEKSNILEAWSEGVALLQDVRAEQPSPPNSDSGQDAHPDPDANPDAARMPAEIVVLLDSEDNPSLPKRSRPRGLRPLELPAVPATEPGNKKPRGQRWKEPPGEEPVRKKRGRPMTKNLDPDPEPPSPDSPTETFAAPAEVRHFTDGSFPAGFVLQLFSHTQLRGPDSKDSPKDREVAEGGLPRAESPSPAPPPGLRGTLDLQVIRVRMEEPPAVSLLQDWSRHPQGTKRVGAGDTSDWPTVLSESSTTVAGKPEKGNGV
UniProt O60225: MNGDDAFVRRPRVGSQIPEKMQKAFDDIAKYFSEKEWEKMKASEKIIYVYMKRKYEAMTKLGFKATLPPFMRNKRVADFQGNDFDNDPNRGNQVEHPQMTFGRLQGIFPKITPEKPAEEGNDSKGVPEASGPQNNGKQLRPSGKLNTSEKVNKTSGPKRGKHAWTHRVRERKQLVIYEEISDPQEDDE
UniProt P81877: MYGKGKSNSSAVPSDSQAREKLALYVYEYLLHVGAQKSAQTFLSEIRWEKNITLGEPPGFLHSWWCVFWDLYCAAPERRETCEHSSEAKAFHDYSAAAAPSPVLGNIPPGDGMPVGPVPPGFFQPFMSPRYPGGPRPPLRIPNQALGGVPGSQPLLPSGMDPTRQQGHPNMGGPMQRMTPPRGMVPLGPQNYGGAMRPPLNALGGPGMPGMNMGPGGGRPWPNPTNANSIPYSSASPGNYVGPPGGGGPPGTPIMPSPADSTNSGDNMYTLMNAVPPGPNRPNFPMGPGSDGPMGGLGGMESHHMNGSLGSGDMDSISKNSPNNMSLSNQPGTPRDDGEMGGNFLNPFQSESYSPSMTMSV
UniProt P16150: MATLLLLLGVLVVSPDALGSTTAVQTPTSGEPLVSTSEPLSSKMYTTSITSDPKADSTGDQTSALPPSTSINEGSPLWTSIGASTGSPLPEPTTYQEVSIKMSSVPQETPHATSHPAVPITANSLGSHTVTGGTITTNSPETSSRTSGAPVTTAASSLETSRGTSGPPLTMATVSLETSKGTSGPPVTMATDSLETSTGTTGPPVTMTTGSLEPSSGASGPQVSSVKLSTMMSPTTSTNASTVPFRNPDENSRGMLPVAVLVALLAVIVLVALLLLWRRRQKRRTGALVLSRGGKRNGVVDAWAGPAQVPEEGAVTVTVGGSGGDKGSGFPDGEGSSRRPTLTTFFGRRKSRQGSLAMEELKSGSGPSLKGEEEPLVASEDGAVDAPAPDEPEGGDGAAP
UniProt Q9NSC7: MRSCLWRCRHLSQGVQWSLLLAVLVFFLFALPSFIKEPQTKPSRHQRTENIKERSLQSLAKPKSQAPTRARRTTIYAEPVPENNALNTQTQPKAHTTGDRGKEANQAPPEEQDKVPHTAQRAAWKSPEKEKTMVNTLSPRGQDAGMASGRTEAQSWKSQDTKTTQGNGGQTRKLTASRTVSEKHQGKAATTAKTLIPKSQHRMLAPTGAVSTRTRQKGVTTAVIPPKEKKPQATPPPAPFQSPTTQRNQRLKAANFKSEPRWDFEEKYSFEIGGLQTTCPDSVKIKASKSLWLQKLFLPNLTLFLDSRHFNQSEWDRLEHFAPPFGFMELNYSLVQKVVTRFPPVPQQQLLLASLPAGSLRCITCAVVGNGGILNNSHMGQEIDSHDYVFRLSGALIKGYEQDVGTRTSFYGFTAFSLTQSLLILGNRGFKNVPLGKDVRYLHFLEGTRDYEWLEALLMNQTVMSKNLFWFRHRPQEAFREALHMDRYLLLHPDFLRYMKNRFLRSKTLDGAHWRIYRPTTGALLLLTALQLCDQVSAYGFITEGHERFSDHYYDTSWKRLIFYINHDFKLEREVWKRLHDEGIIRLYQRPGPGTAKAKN
UniProt O75177, whole entry, looked up: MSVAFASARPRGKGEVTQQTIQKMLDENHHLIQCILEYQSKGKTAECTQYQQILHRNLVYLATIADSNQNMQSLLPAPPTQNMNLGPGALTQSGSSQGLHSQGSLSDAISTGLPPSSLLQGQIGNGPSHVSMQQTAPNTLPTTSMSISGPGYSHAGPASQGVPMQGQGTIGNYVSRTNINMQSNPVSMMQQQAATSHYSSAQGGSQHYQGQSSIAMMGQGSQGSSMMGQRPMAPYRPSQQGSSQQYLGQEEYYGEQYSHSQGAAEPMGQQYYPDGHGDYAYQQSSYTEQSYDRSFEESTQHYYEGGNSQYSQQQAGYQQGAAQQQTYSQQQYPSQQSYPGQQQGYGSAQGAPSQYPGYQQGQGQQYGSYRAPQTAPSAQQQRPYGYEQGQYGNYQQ
UniProt Q7Z699: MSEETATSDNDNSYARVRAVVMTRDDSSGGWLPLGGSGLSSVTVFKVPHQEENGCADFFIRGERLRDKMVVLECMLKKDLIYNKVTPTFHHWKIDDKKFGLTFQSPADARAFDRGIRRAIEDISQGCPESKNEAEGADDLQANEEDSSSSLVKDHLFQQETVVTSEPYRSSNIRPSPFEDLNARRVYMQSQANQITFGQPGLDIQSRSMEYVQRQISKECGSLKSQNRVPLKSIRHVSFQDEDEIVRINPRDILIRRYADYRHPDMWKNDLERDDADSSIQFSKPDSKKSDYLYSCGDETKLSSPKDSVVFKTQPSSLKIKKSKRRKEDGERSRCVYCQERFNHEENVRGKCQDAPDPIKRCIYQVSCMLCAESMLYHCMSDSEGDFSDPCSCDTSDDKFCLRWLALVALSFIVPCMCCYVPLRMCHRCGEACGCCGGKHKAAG
UniProt P35325: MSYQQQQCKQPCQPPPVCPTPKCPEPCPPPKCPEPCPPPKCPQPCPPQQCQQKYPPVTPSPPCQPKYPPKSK
UniProt P49675, whole entry, looked up: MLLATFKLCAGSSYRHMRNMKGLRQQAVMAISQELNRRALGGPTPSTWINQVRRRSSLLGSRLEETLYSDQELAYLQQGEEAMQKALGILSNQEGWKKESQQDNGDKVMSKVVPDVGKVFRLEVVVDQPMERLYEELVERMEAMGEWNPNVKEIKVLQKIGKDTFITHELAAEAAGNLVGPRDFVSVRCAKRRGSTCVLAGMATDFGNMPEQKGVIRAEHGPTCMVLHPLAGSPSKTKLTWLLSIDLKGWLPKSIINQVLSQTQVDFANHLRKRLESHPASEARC

Experiments:
Assay in all cases: log2 fold change, soluble protein after heating vs DMSO (PISA); higher = thermal stabilisation; K562 lysate, 10 uM; active = over 0.2 and 3.5 SD of the protein, either way, in both replicates (recomputed)
alvocidib = compound: CN1CC[C@H](c2c(O)cc(O)c3c(=O)cc(-c4ccccc4Cl)oc23)[C@H](O)C1 [alvocidib]
Procedure, shortened: (§1)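 Quantification was by TMTpro 16plex LC-MS/MS with equalised channel sums, applied to the supernatant after 21,000xg for 90 min. Samples were crude K562 extract at 1 mg/mL protein in PBS pH 7.4 with 1 mM MgCl2, treated with 10 μM compound for 30 min, heated for 3 min across 48°C-58°C, pooled and brought to 0.5% NP-40 at 4°C. Values are log-two fold changes in thermal stability relative to solvent controls, from duplicates.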

Tubastatin A = compound: CN1CCc2c(c3ccccc3n2Cc2ccc(C(=O)NO)cc2)C1 [Tubastatin A]
Procedure, shortened: as §1

[1] = compound: CNC(=O)C1=CC=CC=C1NC2=NC(=NC=C2Cl)NC3=C(C=C(C=C3)N4CCOCC4)OC
Procedure, shortened: as §1

defactinib = compound: CNC(=O)c1ccc(Nc2ncc(C(F)(F)F)c(NCc3nccnc3N(C)S(C)(=O)=O)n2)cc1 [defactinib]
Procedure, shortened: as §1

[2] = compound: CNc1nc(-c2ccc3c(N)n[nH]c3c2)cc(N2C[C@@H](C(=O)NC3CCCCC3)CC[C@H]2C)n1
Procedure, shortened: as §1

encorafenib = compound: COC(=O)N[C@@H](C)CNc1nccc(-c2cn(C(C)C)nc2-c2cc(Cl)cc(NS(C)(=O)=O)c2F)n1 [encorafenib]
Procedure, shortened: as §1

[3] = compound: COC(=O)[C@H](CCSC)NC(=O)C1=C(C=C(C=C1)NC[C@H](CS)N)C2=CC=CC=C2
Procedure, shortened: as §1

alisertib = compound: COc1cc(Nc2ncc3c(n2)-c2ccc(Cl)cc2C(c2c(F)cccc2OC)=NC3)ccc1C(=O)O [alisertib]
Procedure, shortened: as §1

[4] = compound: COc1cc2nc(-c3cc(F)ccc3O)nc(N[C@@H]3CNC[C@H]3C(C)(C)O)c2cc1OC
Procedure, shortened: as §1

gefitinib = compound: COc1cc2ncnc(Nc3ccc(F)c(Cl)c3)c2cc1OCCCN1CCOCC1 [gefitinib]
Procedure, shortened: as §1

lapatinib = compound: CS(=O)(=O)CCNCc1ccc(-c2ccc3ncnc(Nc4ccc(OCc5cccc(F)c5)c(Cl)c4)c3c2)o1 [lapatinib]
Procedure, shortened: as §1

pictilisib = compound: CS(=O)(=O)N1CCN(Cc2cc3nc(-c4cccc5[nH]ncc45)nc(N4CCOCC4)c3s2)CC1 [pictilisib]
Procedure, shortened: as §1

crizotinib = compound: C[C@@H](Oc1cc(-c2cnn(C3CCNCC3)c2)cnc1N)c1c(Cl)ccc(F)c1Cl [crizotinib]
Procedure, shortened: as §1

[5] = compound: C[C@H](C1=CC=C(C=C1)C(=O)NC2=C3C=CNC3=NC=C2)N
Procedure, shortened: as §1

duvelisib = compound: C[C@H](Nc1ncnc2nc[nH]c12)c1cc2cccc(Cl)c2c(=O)n1-c1ccccc1 [duvelisib]
Procedure, shortened: as §1

gandotinib = compound: Cc1cc(Nc2cc(CN3CCOCC3)c3nc(C)c(Cc4ccc(Cl)cc4F)n3n2)n[nH]1 [gandotinib]
Procedure, shortened: as §1

tozasertib = compound: Cc1cc(Nc2cc(N3CCN(C)CC3)nc(Sc3ccc(NC(=O)C4CC4)cc3)n2)n[nH]1 [tozasertib]
Procedure, shortened: as §1

doramapimod = compound: Cc1ccc(-n2nc(C(C)(C)C)cc2NC(=O)Nc2ccc(OCCN3CCOCC3)c3ccccc23)cc1 [doramapimod]
Procedure, shortened: as §1

bafetinib = compound: Cc1ccc(NC(=O)c2ccc(CN3CC[C@H](N(C)C)C3)c(C(F)(F)F)c2)cc1Nc1nccc(-c2cncnc2)n1 [bafetinib]
Procedure, shortened: as §1

[6] = compound: Cc1cccc(CC(=O)N2CCc3c2ccc(-c2cn(C)c4ncnc(N)c24)c3F)n1
Procedure, shortened: as §1

Target	log2 fold change (alvocidib)	log2 fold change (Tubastatin A)	log2 fold change [1]	log2 fold change (defactinib)	log2 fold change [2]	log2 fold change (encorafenib)	log2 fold change [3]	log2 fold change (alisertib)	log2 fold change [4]	log2 fold change (gefitinib)	log2 fold change (lapatinib)	log2 fold change (pictilisib)	log2 fold change (crizotinib)	log2 fold change [5]	log2 fold change (duvelisib)	log2 fold change (gandotinib)	log2 fold change (tozasertib)	log2 fold change (doramapimod)	log2 fold change (bafetinib)	log2 fold change [6]
STAT5B (UniProt P51692)	inactive: -0.041	inactive: -0.085	inactive: 0.039	inactive: 0.035	inactive: 0.048	inactive: 0.001	inactive: 0.065	inactive: 0.023	inactive: -0.003	inactive: 0.016	inactive: 0.029	inactive: -0.022	inactive: -0.096	inactive: -0.05	inactive: -0.064	inactive: -0.036	inactive: 0.011	inactive: -0.016	inactive: -0.034	inactive: 0.03
SPECC1 (UniProt Q5M775)	inactive: -0.017	inactive: 0.013	inactive: 0.054	inactive: 0.084	inactive: 0.042	inactive: 0.025	inactive: -0.096	inactive: -0.022	inactive: -0.006	inactive: -0.017	inactive: 0.032	inactive: 0	inactive: -0.025	inactive: 0.014	inactive: -0.004	inactive: 0.036	inactive: 0.065	inactive: 0.04	inactive: 0.032	inactive: -0.004
SPART (UniProt Q8N0X7)	inactive: -0.038	inactive: -0.015	inactive: 0.024	inactive: 0.067	inactive: 0.076	inactive: 0.092	inactive: 0.016	inactive: 0.011	inactive: 0.032	inactive: 0.011	inactive: 0.042	inactive: -0.03	inactive: 0.053	inactive: -0.042	inactive: -0.022	inactive: 0.078	inactive: 0	inactive: 0.015	inactive: -0.072	inactive: 0.066
SPTA1 (UniProt P02549)	inactive: 0.013	inactive: -0.052	inactive: 0	inactive: 0.002	inactive: -0.037	inactive: 0.009	inactive: 0.037	inactive: 0.006	inactive: -0.01	inactive: 0.005	inactive: -0.015	inactive: -0.017	inactive: -0.043	inactive: -0.01	inactive: -0.019	inactive: -0.05	inactive: 0.026	inactive: -0.009	inactive: -0.047	inactive: 0.03
SRSF3 (UniProt P84103)	inactive: -0.051	inactive: 0.028	inactive: -0.036	inactive: -0.017	inactive: 0.039	inactive: 0.018	inactive: -0.026	inactive: 0.043	inactive: 0.005	inactive: 0.038	inactive: -0.03	inactive: 0.019	inactive: 0.025	inactive: -0.058	inactive: 0.04	inactive: -0.057	inactive: 0.038	inactive: -0.007	inactive: 0.038	inactive: 0.057
SRC isoform 2 (UniProt P12931)	inactive: -0.035	inactive: 0.133	inactive: 0.118		inactive: -0.031	inactive: -0.171	inactive: 0.399		inactive: 0		inactive: -0.001	inactive: -0.078		inactive: 0.151	inactive: 0.001	inactive: 0.061	inactive: 0.098		inactive: -0.153	inactive: -0.015
SRP14 (UniProt H0YLW0)	inactive: -0.054	inactive: 0.376	inactive: 0.103		inactive: 1.02				inactive: 0.182		inactive: -0.055	inactive: -0.004	inactive: -0.376	inactive: -0.162	inactive: 0.032	inactive: 0.501		inactive: 0.032	inactive: -0.028	inactive: 0.466
SRP72 (UniProt O76094)	inactive: 0	inactive: -0.047	inactive: 0.009	inactive: 0.043	inactive: 0.016	inactive: 0.033	inactive: 0.041	inactive: -0.001	inactive: 0.045	inactive: -0.024	inactive: 0.003	inactive: -0.001	inactive: -0.018	inactive: 0.001	inactive: -0.008	inactive: -0.046	inactive: -0.017	inactive: 0.033	inactive: -0.046	inactive: -0.009
SSR3 isoform 2 (UniProt Q9UNL2)	inactive: 0.031	inactive: -0.006	inactive: -0.05	inactive: 0.045	inactive: 0.033	inactive: -0.035	inactive: -0.042	inactive: -0.061	inactive: -0.045	inactive: 0.007	inactive: -0.008	inactive: 0.01	inactive: -0.008	inactive: 0.237	inactive: 0.077	inactive: -0.082	inactive: 0.014	inactive: 0.037	inactive: -0.014	inactive: -0.276
SPINDOC (UniProt Q9BUA3)	inactive: -0.026	inactive: 0.035	inactive: 0.078	inactive: 0.016	inactive: 0.097	inactive: -0.006	inactive: 0.084	inactive: 0.16	inactive: -0.002	inactive: -0.197	inactive: 0.003	inactive: -0.022	inactive: 0.074	inactive: 0.009	inactive: 0.014	inactive: 0.163	inactive: -0.029	inactive: -0.008	inactive: 0.035	inactive: 0.065
SSX5 isoform 2 (UniProt O60225)	inactive: -0.096	inactive: -0.015	inactive: 0.038	inactive: -0.026		inactive: -0.082	inactive: -0.271	inactive: -0.172	inactive: -0.002	inactive: 0.005	inactive: 0.042	inactive: 0.082		inactive: -0.476		inactive: 0.092	inactive: 0.085		inactive: -0.04	inactive: 0.183
SSBP2 (UniProt P81877)	inactive: -0.116	inactive: 0.138	inactive: 0.06	inactive: -0.087	inactive: 0.233	inactive: -0.253	inactive: -0.166						inactive: 0.054	inactive: 0.186	inactive: -0.122	inactive: -0.044	inactive: 0.153	inactive: -0.041		inactive: -0.097
SPN (UniProt P16150)	inactive: 0.018	inactive: 0.057	inactive: -0.03	inactive: -0.017	inactive: 0.011	inactive: 0.011	inactive: -0.051	inactive: 0.018	inactive: -0.005	inactive: -0.002	inactive: 0.017	inactive: -0.009	inactive: 0.034	inactive: 0.009	inactive: -0.026	inactive: 0.003	inactive: 0.034	inactive: -0.007	inactive: -0.033	inactive: -0.007
ST6GALNAC1 (UniProt Q9NSC7)	inactive: 0.02	inactive: -0.038	inactive: -0.113	inactive: 0.117	inactive: 0.011	inactive: -0.023	inactive: 0.017	inactive: -0.029		inactive: 0.063		inactive: -0.059	inactive: 0.015	inactive: 0.069	inactive: 0.028	inactive: -0.099	inactive: 0.005	inactive: -0.008	inactive: 0.01	inactive: 0.035
SS18L1 (UniProt O75177)	inactive: -0.038	inactive: 0.055	inactive: 0.11					inactive: -0.154		inactive: -0.062		inactive: 0.147	inactive: -0.04	inactive: -0.09		inactive: -0.008		inactive: 0	inactive: 0.181	inactive: 0.062
SPRED1 (UniProt Q7Z699)	inactive: -0.107	inactive: 0.082	inactive: 0.054		inactive: -0.03	inactive: -0.097	inactive: 0.179		inactive: 0.019		inactive: 0.098	inactive: -0.176		inactive: 0.023	inactive: 0.108	inactive: 0.124	inactive: -0.016		inactive: 0.111	inactive: -0.083
SPRR2B (UniProt P35325)	inactive: 0.085	inactive: 0.1	inactive: -0.05			inactive: 0.076	inactive: -0.15		inactive: -0.103		inactive: 0.023	inactive: -0.008	inactive: -0.058	inactive: 0.174		inactive: 0.93	inactive: 0.17	inactive: 0.099	inactive: 0.122	inactive: -0.14
STAR (UniProt P49675)	inactive: -0.024	active: 0.448	inactive: 0.073	inactive: 0.034	inactive: 0.005	inactive: -0.052	inactive: 0.063	inactive: 0.133		inactive: -0.056			inactive: -0.123	inactive: 0.117	inactive: 0.017	inactive: 0.156	inactive: 0.063	inactive: 0.019		inactive: 0.142

Single values from the list:
Under log2 fold change [4], SRSF3 (UniProt P84103) reads inactive: 0.005
Under log2 fold change (encorafenib), STAR (UniProt P49675) reads inactive: -0.052
